{"sequences": {"note": "By UniProt entry, the sequences of proteins in these tests, tags left out. Where a name states a change or a piece, a line headed by the entry shows the natural chain unless it says otherwise.", "UniProt O94782": "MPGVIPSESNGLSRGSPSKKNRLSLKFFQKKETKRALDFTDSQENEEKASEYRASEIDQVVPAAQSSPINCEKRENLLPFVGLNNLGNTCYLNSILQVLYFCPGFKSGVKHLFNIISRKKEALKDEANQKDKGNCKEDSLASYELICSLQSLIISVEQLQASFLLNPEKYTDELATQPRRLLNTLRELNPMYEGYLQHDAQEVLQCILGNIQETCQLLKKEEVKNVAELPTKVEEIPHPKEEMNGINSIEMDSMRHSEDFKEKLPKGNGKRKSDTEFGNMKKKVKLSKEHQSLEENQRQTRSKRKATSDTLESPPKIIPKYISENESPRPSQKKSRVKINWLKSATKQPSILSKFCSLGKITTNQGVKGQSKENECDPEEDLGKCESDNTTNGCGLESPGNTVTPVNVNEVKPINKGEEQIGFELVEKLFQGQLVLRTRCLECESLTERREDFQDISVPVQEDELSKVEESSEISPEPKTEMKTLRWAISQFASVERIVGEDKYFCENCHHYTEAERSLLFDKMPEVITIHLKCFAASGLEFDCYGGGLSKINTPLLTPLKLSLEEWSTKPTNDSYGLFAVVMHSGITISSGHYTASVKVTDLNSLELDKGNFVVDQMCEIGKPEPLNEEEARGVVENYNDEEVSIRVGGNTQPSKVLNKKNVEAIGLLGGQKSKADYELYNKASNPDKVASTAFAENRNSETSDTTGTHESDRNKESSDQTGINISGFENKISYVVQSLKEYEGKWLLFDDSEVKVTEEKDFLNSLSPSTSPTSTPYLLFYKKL"}, "source": "PubChem BioAssay AID743255", "about": "(National Center for Advancing Translational Sciences (NCATS), 2014)", "note": "In all, about 390,000 compounds went through this assay and about 910 (0.23%) were called active. The inconclusive results got no clear call from the source; some entries with a clear call stand among them for comparison. The call rests on the fitted dose curve; in most records, active means well fitted inhibition curve with a large enough effect; inconclusive means small, poorly fitted or top-dose-only effect; inactive means no such curve, though single readings can be large or run the other way. Where the call is inconclusive, the potency comes from a doubtful curve fit. On the % scale 0 is the no-effect control and ±100 the full control effect; potency means the concentration at half of the fitted maximal effect."}
{"molecular_target": "Ubiquitin carboxyl-terminal hydrolase 1 (Homo sapiens) (UniProt O94782)", "assay": "Inhibitors of USP1/UAF1: Primary Screen; further: nearly all actives have a fitted effect of over 60% in size", "conditions": "recombinant USP1/UAF1, Ub-Rhodamine cleavage fluorescence; activity change, negative = inhibition: at 57.1 µM (top of the series)", "procedure,_shortened": "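USP1/UAF1 complex (1 nM) preincubated 15 min at room temperature with compound, then Ub-Rho substrate (150 nM final) added. Kinetic fluorescence at 480/540 nm over 6 reads at 60 s intervals; 50 mM HEPES pH 7.8, 0.5 mM EDTA, 0.1 mg/ml BSA, 1 mM TCEP, 0.01% Tween-20.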"}
{"smiles": "O=c1nc2s/c(=C\\c3ccc(-c4ccccc4[N+](=O)[O-])o3)c(=O)n2nc1-c1ccccc1", "Potency": "inconclusive: 35.5 µM [inhibitor, partial curve, poor fit]"}
{"smiles": "CC1CCN(C(=O)c2ccc(NC3=C(Cl)C(=O)N(Cc4ccccc4)C3=O)cc2)CC1", "Potency": "inconclusive: 44.7 µM [inhibitor, partial curve, poor fit]"}
{"smiles": "COc1ccc(NC(=O)CCC(=O)c2cccs2)cc1Cl", "activity change, negative = inhibition": "inactive: -22%"}
{"smiles": "CCOC(=O)CN1C(=O)S/C(=C/c2ccco2)C1=O", "activity change, negative = inhibition": "inactive: -17.3%"}
{"smiles": "O=c1c2ccccc2oc2c1oc1ccccc12", "Potency": "inconclusive: 35.5 µM [inhibitor, partial curve, poor fit]"}
{"smiles": "CCOC(=O)Cc1ccc(NC(=O)N(Cc2ccc(CC)cc2)Cc2cn[nH]c2-c2ccc(OC)cc2)cc1", "Potency": "inconclusive: 31.6 µM [inhibitor, partial curve, poor fit]"}
{"smiles": "Cc1ccc(NC(=O)c2cnc3sc(N4CCOCC4)nn3c2=O)cc1N(C)C", "activity change, negative = inhibition": "inactive: -11.9%"}
{"smiles": "COC(=O)c1scc(-c2ccc(C)cc2)c1S(=O)(=O)Nc1cc(C)ccc1OC", "Potency": "inconclusive: 50.1 µM [inhibitor, partial curve, poor fit]"}
{"smiles": "NS(=O)(=O)c1ccc(CCNC(=S)NC(=O)c2ccccc2Br)cc1", "Potency": "inconclusive: 31.6 µM [inhibitor, single point]"}
{"smiles": "COc1ccc(N=N/C(=C\\O)C(=O)c2cccs2)cc1", "activity change, negative = inhibition": "inactive: -29.3%"}
{"smiles": "c1ccc2c(c1)ccc1nnc(SCc3ccc4c(c3)OCCO4)n12", "Potency": "inconclusive: 0.794 µM [inhibitor, full curve]"}
{"smiles": "CC(=O)C1CCC2C3CC(O)C4=CC(=O)CCC4(C)C3C(=O)CC12C", "note": "(stereo not given)", "Potency": "inconclusive: 5.01 µM [inhibitor, full curve]"}
{"smiles": "NCCCC[C@H]1NC(=O)[C@H](CCC(=O)O)NC(=O)c2cc([N+](=O)[O-])cc(I)c2OCC[C@@H](C(N)=O)NC1=O", "Potency": "inconclusive: 11.2 µM [inhibitor, partial curve]"}
{"smiles": "N#Cc1c(C(F)(F)F)cc(-c2cccs2)nc1SCC(=O)Nc1cccc(Cl)c1", "Potency": "inconclusive: 5.01 µM [inhibitor, partial curve, poor fit]"}
{"smiles": "CCN(CC)c1ccc(/C=N/Nc2ccccc2)c(O)c1", "Potency": "inconclusive: 39.8 µM [inhibitor, partial curve, poor fit]"}
{"smiles": "COc1ccc(C(=O)c2sc(Nc3ccccc3)nc2N)cc1", "Potency": "inactive"}
{"smiles": "CCO/C=C1/C(=O)N(c2ccccc2OC)C(=O)c2ccccc21", "Potency": "inconclusive: 31.6 µM [inhibitor, partial curve, poor fit]"}
{"smiles": "COc1ccc(-c2nn3c(-c4ccccc4)nnc3s2)cc1", "activity change, negative = inhibition": "inactive: -11%"}
{"smiles": "COc1cccc(N2CC(NC(=O)c3cc(Cl)ccc3OC)CC2=O)c1", "note": "(stereo not given)", "activity change, negative = inhibition": "inactive: -21.8%"}
{"smiles": "Oc1c(Br)cc(Br)cc1C=Nc1ccc2c(c1)OCO2", "Potency": "inconclusive: 17.8 µM [inhibitor, partial curve]"}
{"smiles": "CC(=O)Oc1ccc2c(C)cc(=O)oc2c1C(=O)c1ccccc1", "activity change, negative = inhibition": "inactive: 2.59%"}
{"smiles": "Cc1ccc(C)c(N2CCN(CCCNC(=O)c3ccc4nc(CCc5ccccc5)oc4c3)CC2)c1", "Potency": "inconclusive: 10 µM [inhibitor, full curve, poor fit]"}
{"smiles": "CCOc1ccc(N2CC(NC(=O)C3CCCC3)CC2=O)cc1", "note": "(stereo not given)", "Potency": "inconclusive: 7.94 µM [inhibitor, single point]"}
{"smiles": "CCCCCC(=O)Nc1cc(S(=O)(=O)N2CCCCC2)ccc1N1CCCCC1", "activity change, negative = inhibition": "inactive: -21.8%"}
{"smiles": "CCN1CCN(C(c2ccc(SC)cc2)c2c(O)cc(C)n(CCOC)c2=O)CC1", "note": "(stereo not given)", "activity change, negative = inhibition": "inactive: -13.4%"}
{"smiles": "COc1ccc(Cl)cc1NC(=O)c1c(NCc2cccnc2)sc2c1CCC(C)C2", "note": "(stereo not given)", "activity change, negative = inhibition": "inactive: -5.2%"}
{"smiles": "c1ccc2c(c1)CCN(c1nc3cc4c(cc3s1)OCCO4)C2", "activity change, negative = inhibition": "inactive: -24.8%"}
{"smiles": "Cc1ccccc1C(=O)N(Cc1sccc1C)C1CCS(=O)(=O)C1", "note": "(stereo not given)", "Potency": "inconclusive: 0.794 µM [inhibitor, full curve, poor fit]"}
{"smiles": "Cc1cc(CNC(=O)COc2ccccc2)c2ccccc2n1", "activity change, negative = inhibition": "inactive: -3.87%"}
{"smiles": "CCc1n[nH]c(=S)n1/N=C/c1cc(OC)cc([N+](=O)[O-])c1O", "activity change, negative = inhibition": "inactive: 1.76%"}
{"smiles": "CC(=O)c1ccc(NC(=O)CSc2nc(=O)n(Cc3ccncc3)c3c2CCC3)cc1", "Potency": "inconclusive: 8.91 µM [inhibitor, partial curve, poor fit]"}
{"smiles": "CC(=O)Nc1nc(-c2ccc([N+](=O)[O-])cc2)cs1", "activity change, negative = inhibition": "inactive: -17.5%"}
{"smiles": "Fc1ccc(NC(=S)NCCc2ccccc2)c(F)c1F", "Potency": "inconclusive: 0.316 µM [inhibitor, full curve, poor fit]"}
{"smiles": "COc1cc(C(=O)NCC(c2ccc(Cl)cc2)N2CCOCC2)cc(OC)c1OC", "note": "(stereo not given)", "Potency": "inconclusive: 0.282 µM [inhibitor, full curve, poor fit]"}
{"smiles": "Cc1ccc(-c2ccc(/C=C3\\C(=O)ON=C3c3ccccc3)o2)c([N+](=O)[O-])c1", "Potency": "inconclusive: 31.6 µM [inhibitor, single point]"}
{"smiles": "CC(=O)c1ccc2c(c1)c(C#N)c1ccccc1[n+]2[O-]", "Potency": "inconclusive: 4.47 µM [inhibitor, partial curve]"}
{"smiles": "O=c1cc(-c2ccc(F)cc2)nc(SCc2nc(-c3ccc(Cl)cc3)no2)[nH]1", "Potency": "inconclusive: 35.5 µM [inhibitor, partial curve]"}
{"smiles": "NC(=O)C1(N2CCCCC2)CCN(c2ccc3nnc(-c4ccccc4)n3n2)CC1", "Potency": "inconclusive: 39.8 µM [inhibitor, single point]"}
{"smiles": "COc1ccccc1CNC(=O)CN1N=C(c2ccccc2)CCC1=O", "activity change, negative = inhibition": "inactive: 14%"}
{"smiles": "COc1ccc2oc(-c3cccc(NC(=O)CSc4ccc(Cl)cc4)c3)nc2c1", "Potency": "inconclusive: 39.8 µM [inhibitor, partial curve]"}
{"smiles": "CCN(Cc1ccccc1)c1ccc(/C=N/NC(=S)NC(C)C)cc1", "activity change, negative = inhibition": "inactive: -16.8%"}
{"smiles": "CCCCNc1nc2ccccc2c2nc(-c3ccccc3)nn12", "Potency": "inconclusive: 56.2 µM [inhibitor, partial curve, poor fit]"}
{"smiles": "CCCCC(=O)N/N=C/c1ccc(-c2ccc([N+](=O)[O-])cc2)o1", "activity change, negative = inhibition": "inactive: -24%"}
{"smiles": "CC1CC(=O)C2=C(C1)Nc1ccccc1N=C2", "note": "(stereo not given)", "activity change, negative = inhibition": "inactive: -1.34%"}
{"smiles": "CC(C)CNC(=O)CSc1n[nH]c(=O)n1CCc1ccccc1", "Potency": "inconclusive: 50.1 µM [inhibitor, partial curve]"}
{"smiles": "COC(=O)c1nc(NC(=O)c2ccccc2Cl)n[nH]1", "activity change, negative = inhibition": "inactive: -18%"}
{"smiles": "Fc1ccccc1N1CCN(c2nccn3nc(-c4ccc(Br)cc4)cc23)CC1", "Potency": "inconclusive: 0.316 µM [inhibitor, full curve, poor fit]"}
{"smiles": "COC(=O)c1sc(-c2ccc(C(C)(C)C)cc2)cc1NC(=O)/C=C/C(=O)O", "Potency": "inconclusive: 39.8 µM [inhibitor, partial curve, poor fit]"}
{"smiles": "CCn1c(=O)cc(OCC(=O)N(C)c2cc(Cl)ccc2C)c2ccccc21", "activity change, negative = inhibition": "inactive: -13%"}
{"smiles": "CC(=O)Nc1ccc(OCC(O)Cn2cccn2)cc1", "note": "(stereo not given)", "activity change, negative = inhibition": "inactive: -12.3%"}
{"smiles": "CSc1nc(O)c(C(c2ccc(O)cc2)c2c(O)nc(SC)[nH]c2=O)c(=O)[nH]1", "activity change, negative = inhibition": "inactive: -22.8%"}
{"smiles": "O=S(=O)(O)c1cccc(N=Nc2c(O)ccc3ccccc23)c1", "Potency": "inconclusive: 50.1 µM [inhibitor, partial curve]"}
{"smiles": "Oc1ccc(NCc2ccccc2OCc2ccc(Cl)cc2)cc1", "Potency": "inconclusive: 35.5 µM [inhibitor, partial curve, poor fit]"}
{"smiles": "COc1cc(Nc2nc3c(S(=O)(=O)c4ccc(C)c(C)c4)nnn3c3ccsc23)cc(OC)c1", "Potency": "inconclusive: 0.708 µM [inhibitor, full curve, poor fit]"}
{"smiles": "OCC1OC(n2cnc3ccccc32)CC1O", "note": "(stereo not given)", "Potency": "inconclusive: 39.8 µM [inhibitor, partial curve, poor fit]"}
{"smiles": "CCOc1ccc(CCNC(=O)c2nn(C)c3c2CSc2ccccc2-3)cc1", "activity change, negative = inhibition": "inactive: -14.7%"}
{"smiles": "CN(C)CCNC(=O)c1ccc(-c2nn(C)c(=O)c3ccccc23)cc1", "Potency": "inconclusive: 2.24 µM [inhibitor, partial curve]"}
{"smiles": "COc1ccc(/C=C/c2c(-c3ccc(OC)cc3)oc3ccccc23)cc1", "Potency": "inconclusive: 0.141 µM [inhibitor, full curve, poor fit]"}
{"smiles": "CCOc1ncccc1C(=O)N1CCN(c2cc(Cl)ccc2C)CC1", "Potency": "inconclusive: 39.8 µM [inhibitor, partial curve, poor fit]"}
{"smiles": "CCOc1ccc(NC(=O)c2cc(S(=O)(=O)NC3CCCCCC3)ccc2F)cc1", "Potency": "inconclusive: 0.708 µM [inhibitor, full curve]"}
{"smiles": "CCN(CC)C(=O)C1CCN(S(=O)(=O)c2c(C)noc2/C=C/c2cccc(OC)c2)CC1", "Potency": "inconclusive: 11.2 µM [inhibitor, partial curve, poor fit]"}
{"smiles": "c1ccc(C2Oc3ccccc3C3CC(c4cccs4)=NN32)cc1", "note": "(stereo not given)", "Potency": "inconclusive: 39.8 µM [inhibitor, partial curve]"}
{"smiles": "O=C(CN1C(=O)CSc2ccc(S(=O)(=O)N3CCCC3)cc21)Nc1cccc(Cl)c1", "Potency": "inconclusive: 4.47 µM [inhibitor, single point]"}
{"smiles": "Cc1cc2ccccc2cc1C(=O)c1ccccc1", "Potency": "inconclusive: 14.1 µM [inhibitor, single point]"}
{"smiles": "Nc1cc(-c2ccc(Br)cc2)[nH]n1", "activity change, negative = inhibition": "inactive: -9.21%"}
{"smiles": "CCCCNC(=S)Nc1ccc(SC(F)F)cc1", "activity change, negative = inhibition": "inactive: -11.9%"}
{"smiles": "O=c1ccc2cc3c4c(c2o1)CCCN4CCC3", "Potency": "inconclusive: 31.6 µM [inhibitor, partial curve]"}
{"smiles": "CCOc1ccc(-n2c(=O)c3c(C)c(C)sc3n(CC(=O)NCCc3ccccc3)c2=O)cc1", "Potency": "inconclusive: 5.01 µM [inhibitor, single point]"}
{"smiles": "CCOc1ccccc1NC(=O)CSc1nccn1-c1cccc(C)c1", "activity change, negative = inhibition": "inactive: -32.2%"}
{"smiles": "COc1ccccc1CNC(=O)c1ccc(Nc2nc3ccccc3n3nnnc23)cc1", "Potency": "inconclusive: 11.2 µM [inhibitor, partial curve]"}
